Experimental data published in PMC8749417.
No constants are given. Whether binding was seen depends on the method and setting. Binding seen in cells or lysates may run through a third protein. Sequences can lack the tags named with a protein.

Target: T1, Flag-pGSDMD-194-488 (porcine) (UniProt F1SEV7)
T1 sequence: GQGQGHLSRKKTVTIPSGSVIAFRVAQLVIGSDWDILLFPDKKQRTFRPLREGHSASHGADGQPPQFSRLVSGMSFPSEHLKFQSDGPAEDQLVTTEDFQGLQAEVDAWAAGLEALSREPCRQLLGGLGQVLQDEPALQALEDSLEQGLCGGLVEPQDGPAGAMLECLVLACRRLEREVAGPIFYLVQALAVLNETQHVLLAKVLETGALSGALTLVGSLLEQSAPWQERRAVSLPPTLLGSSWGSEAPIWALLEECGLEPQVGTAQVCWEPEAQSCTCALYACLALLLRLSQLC
Test: co-IP; HEK293T cells transfected for 24 h, lysed; supernatants incubated with anti-Flag binding beads at 4°C overnight, washed with TBS 5 times, immunoblot

binding: no binding
B1: porcine Caspase-1, HA-tagged (HA-pCaspase-1) (enzyme, UniProt Q9N2I1 1-404)
chain: MADKVLKEKRRLFVRSVAMGTINGLLDELLETRVLNQEEVEIVRGENATVMDKARALIDSVIRKGPQACQICINHICGDDPHLAGVLELSTGSQSGKCLTVQESQAVVPPFPAPQTVQDNPVKPASSEPRGSLKLCPPDIAQRLWKEKSAEIYPIMGKSIRTRLALIICNTEFENLPRRDGADVDIRDMKILLEDLGYSVDVRENLTASDMAIELKAFAARPEHKSSDSTFLVLMSHGIQAGICGKKYSEEVPDVLEVNTVFQILNTLNCPSLKDKPKVIIIQACRGEKQGVVWIKDSVGPSGNSSLLAAEDFEYDAIKKAHIEKDFIAFCSSTPDNVSWRHPLLGSLFIIKLIKILQEHAWSCGLEEIFRKVRFSFELADGRAQMPTAERVTLTRSFYLFPGH
